Data as given in PubChem BioAssay AID686943 (Drosophila RNAi Screening Center, 2013)
Purpose: 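Knockdowns that increase or decrease active ERK after insulin receptor stimulation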 (primary screen). System: Drosophila S2R+ haemocyte-like cells expressing YFP-tagged ERK (Rolled). Knock-down reagent: long dsRNA against Drosophila genes. Treatment: insulin stimulation versus unstimulated cells; dose and duration not given. Measured: 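Per-plate z-scores of phospho-ERK immunostaining normalised to YFP-tagged ERK, measured with and without insulin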. Reading the numbers: replicate 1, z-score of dpERK with insulin and replicate 2, z-score of dpERK with insulin: higher = more active ERK per ERK-YFP after insulin.
In all, the deposit lists about 23,000 reagents; below is an unselected part of those with a known target gene and a result. 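Extra replicates exist only for a retested subset of genes; insulin dose and duration not given; both raised and lowered dpERK matter.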 Not all columns of the deposit are shown. No sequences are given here. Not given: the amount of reagent, the time to read-out.

Ran [DRSC20364]
- replicate 1, z-score of dpERK with insulin: 0.89
- replicate 2, z-score of dpERK with insulin: -0.78

CG15353 [DRSC00383]
- replicate 1, z-score of dpERK with insulin: -0.32
- replicate 2, z-score of dpERK with insulin: 0.33

CG15824 [DRSC00473]
- replicate 1, z-score of dpERK with insulin: -0.43
- replicate 2, z-score of dpERK with insulin: -0.42

SkpC [DRSC20375]
- replicate 1, z-score of dpERK with insulin: 1.53
- replicate 2, z-score of dpERK with insulin: -0.45

Klp67A [DRSC11205]
- replicate 1, z-score of dpERK with insulin: 0.03
- replicate 2, z-score of dpERK with insulin: -0.3

Ilp4 [DRSC10701]
- replicate 1, z-score of dpERK with insulin: 0.74
- replicate 2, z-score of dpERK with insulin: 1.62

CG14893 [DRSC15015]
- replicate 1, z-score of dpERK with insulin: 0.04
- replicate 2, z-score of dpERK with insulin: -0.49

acs [DRSC08185]
- replicate 1, z-score of dpERK with insulin: 0.36
- replicate 2, z-score of dpERK with insulin: -0.28

CG30440 [DRSC04775]
- replicate 1, z-score of dpERK with insulin: 0.55
- replicate 2, z-score of dpERK with insulin: 0.75

CG30440 [DRSC04845]
- replicate 1, z-score of dpERK with insulin: -0.03
- replicate 2, z-score of dpERK with insulin: 0.28

CG30440 [DRSC04855]
- replicate 1, z-score of dpERK with insulin: -0.73
- replicate 2, z-score of dpERK with insulin: -0.14

Cul5 [DRSC14723]
- replicate 1, z-score of dpERK with insulin: 0.83
- replicate 2, z-score of dpERK with insulin: 0

Cds [DRSC10938]
- replicate 1, z-score of dpERK with insulin: 0.18
- replicate 2, z-score of dpERK with insulin: 0.16

CG13018 [DRSC06274]
- replicate 1, z-score of dpERK with insulin: 0
- replicate 2, z-score of dpERK with insulin: 1.22

Adck1 [DRSC04394]
- replicate 1, z-score of dpERK with insulin: 0.25
- replicate 2, z-score of dpERK with insulin: 0.46

Lk6 [DRSC12867]
- replicate 1, z-score of dpERK with insulin: -1.74
- replicate 2, z-score of dpERK with insulin: -1.1

Lk6 [DRSC16728]
- replicate 1, z-score of dpERK with insulin: 0.19
- replicate 2, z-score of dpERK with insulin: 0.58

Rpn11 [DRSC03422]
- replicate 1, z-score of dpERK with insulin: -3.24
- replicate 2, z-score of dpERK with insulin: -2.65

scf [DRSC08735]
- replicate 1, z-score of dpERK with insulin: -0.24
- replicate 2, z-score of dpERK with insulin: -1.17

CG10465 [DRSC04848]
- replicate 1, z-score of dpERK with insulin: 0.69
- replicate 2, z-score of dpERK with insulin: 0.33

CG11779 [DRSC14384]
- replicate 1, z-score of dpERK with insulin: 1.41
- replicate 2, z-score of dpERK with insulin: 0.68

ATPsynCF6L [DRSC08232]
- replicate 1, z-score of dpERK with insulin: 0.72
- replicate 2, z-score of dpERK with insulin: 0.51

CG15650 [DRSC04241]
- replicate 1, z-score of dpERK with insulin: 0.62
- replicate 2, z-score of dpERK with insulin: 0.94

CG15784 [DRSC18090]
- replicate 1, z-score of dpERK with insulin: -0.24
- replicate 2, z-score of dpERK with insulin: -0.06

CG15083 [DRSC06514]
- replicate 1, z-score of dpERK with insulin: -0.08
- replicate 2, z-score of dpERK with insulin: 0.15

Dh44-R2 [DRSC06141]
- replicate 1, z-score of dpERK with insulin: -0.03
- replicate 2, z-score of dpERK with insulin: -0.26

Dh44-R2 [DRSC06281]
- replicate 1, z-score of dpERK with insulin: -0.21
- replicate 2, z-score of dpERK with insulin: -0.69

Ada2b [DRSC16531]
- replicate 1, z-score of dpERK with insulin: 0.48
- replicate 2, z-score of dpERK with insulin: 1.21

CG17028 [DRSC10239]
- replicate 1, z-score of dpERK with insulin: 0.72
- replicate 2, z-score of dpERK with insulin: 0.94

CycE [DRSC03295]
- replicate 1, z-score of dpERK with insulin: -6.09
- replicate 2, z-score of dpERK with insulin: -5.79

CycE [DRSC03296]
- replicate 1, z-score of dpERK with insulin: -4.17
- replicate 2, z-score of dpERK with insulin: -5.16

Limited to “replicate 2, z-score of dpERK with insulin”, for 2 of the entries above:
CG13018 [DRSC06274]: 1.22
Adck1 [DRSC04394]: 0.46
